# From PubChem BioAssay AID504834 (National Center for Advancing Translational Sciences (NCATS), 2011)
# The whole screen tested about 320,000 compounds, of which about 22,000 (6.9%) were called active. The inconclusive results got no clear call from the source; some entries with a clear call stand among them for comparison. Calls come from the whole dose curve; as a rule, active = well fitted inhibition curve with a large enough effect; inconclusive = small, poorly fitted or top-dose-only effect, or another doubt; inactive = no such curve, though single readings can be large or run the other way. Where the call is inconclusive, the potency comes from a doubtful curve fit.
# Assay: Primary qHTS for delayed death inhibitors of the malarial parasite plastid, 96 hour incubation
# Conditions: P. falciparum luciferase reporter growth; series mostly up to 28.7 µM
# Summary of the method: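 P. falciparum expressing integrated firefly luciferase grown in erythrocytes (2% hematocrit, 0.05% parasitemia final) with compounds for 96 hours at 37 C, 5% CO2. Growth inhibition read as loss of luminescence after adding luciferase detection reagent.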
# Potency is the fitted concentration of half-maximal effect.
row,SMILES,Potency
1,CC[C@@H](NS(=O)(=O)c1ccc(C)cc1)C(=O)Oc1ccc2c3c(c(=O)oc2c1)CCC3,"inconclusive: 0.0828 µM [inhibitor, full curve, poor fit]"
2,CCOc1ccc(-c2c(=O)n(OCc3ccccn3)c3ccccc3[n+]2[O-])cc1,"inconclusive: 20.8 µM [inhibitor, partial curve, poor fit]"
3,Cc1ccccc1C(=O)Oc1cc(N)n(S(=O)(=O)c2ccccc2)n1,"inconclusive: 4.15 µM [inhibitor, single point]"
4,O=C(O)c1ccccc1C(=O)c1ccc(Oc2ccccc2)cc1,"inconclusive: 13.1 µM [inhibitor, single point]"
5,CC(=O)Nc1ccc2c(c1)OCO2,inactive
6,CCCc1c(C(=O)NNc2cccc(Cl)c2)cnn1-c1ccccc1,inactive
7,COc1ccc(S(=O)(=O)N2CCOCC2)cc1NC(=O)CCCOc1ccc(Cl)cc1C,"inconclusive: 16.5 µM [inhibitor, single point]"
8,Cn1cc(C(=O)Cc2ccccc2)c2ccccc21,"inconclusive: 9.28 µM [inhibitor, single point]"
9,CCOC(=O)c1c(C)n(C)c2ccc(OC(C)=O)cc12,"inconclusive: 2.94 µM [inhibitor, single point]"
10,CCN(CC)C1CCCCC1NS(=O)(=O)c1ccc(Cl)cc1 (stereo not drawn),"inconclusive: 0.0037 µM [inhibitor, full curve, poor fit]"
11,CCOC(=O)c1sc(NC(=O)CCN2C(=O)C3CCCCC3C2=O)cc1C (stereo not drawn),"inconclusive: 5.22 µM [inhibitor, partial curve, poor fit]"
12,CC1CCN(c2nc(-c3ccco3)c3c(c2C#N)CC(C)(C)OC3)CC1,"inconclusive: 14.7 µM [inhibitor, single point]"
13,Cc1cc(C(=O)CSc2nnc(N)s2)c(C)n1CCc1ccc(F)cc1,"inconclusive: 9.28 µM [inhibitor, single point]"
14,COc1ccc(C(=O)NC2CCN(Cc3c(F)cccc3Cl)CC2)cc1OC,inactive
15,COc1ccc(NC(C)=O)cc1S(=O)(=O)N1CCN(Cc2cccs2)CC1,"inconclusive: 13.1 µM [inhibitor, single point]"
16,Cc1ccc(C(=O)Nc2ccc(N3CCN(S(C)(=O)=O)CC3)cc2)cc1C,"inconclusive: 13.1 µM [inhibitor, single point]"
17,NS(=O)(=O)c1ccc(NC(=S)NC(=O)c2cccc(Br)c2)cc1,active: 13.1 µM
18,O=C(Nc1ncc([N+](=O)[O-])s1)C1COc2ccccc2O1 (stereo not drawn),"inconclusive: 18.5 µM [inhibitor, single point]"
19,O=C(CN1CCc2cc3c(cc2C1)OCCCO3)Nc1cccc(Br)c1,"inconclusive: 18.5 µM [inhibitor, single point]"
20,Cc1ccc(C)c(NC(=O)CSc2nnc(CNC(=O)c3cccs3)o2)c1,"inconclusive: 9.28 µM [inhibitor, single point]"
21,C=CCn1c(SCC(=O)c2c(C)[nH]c3ccccc23)nnc1-c1ccncc1,inactive
22,CN(Cc1ccc(F)cc1)C(=O)c1cccc(S(=O)(=O)N2CCN(Cc3ccccc3)CC2)c1,"inconclusive: 13.1 µM [inhibitor, single point]"
23,CCOC(=O)CSc1nnc(CSc2nc(C)cc(C)n2)n1Cc1ccco1,inactive

# At a glance, three of the compounds above.
row,SMILES,Potency
14,COc1ccc(C(=O)NC2CCN(Cc3c(F)cccc3Cl)CC2)cc1OC,inactive
15,COc1ccc(NC(C)=O)cc1S(=O)(=O)N1CCN(Cc2cccs2)CC1,"inconclusive: 13.1 µM [inhibitor, single point]"
16,Cc1ccc(C(=O)Nc2ccc(N3CCN(S(C)(=O)=O)CC3)cc2)cc1C,"inconclusive: 13.1 µM [inhibitor, single point]"

# The listing continues:

row,SMILES,Potency
1,Oc1ccccc1/C=N/Nc1cccc2cccnc12,inactive
2,CCN(C(=O)COC(=O)/C(=C/c1ccccc1)n1nnnc1C)C1CCCCC1,"inconclusive: 18.5 µM [inhibitor, single point]"
3,O=C(Cc1ccc(-c2ccccc2)cc1)Nc1ccccn1,inactive
4,COc1cc(Br)c(CCNC(=O)Cc2ccccc2)cc1OC,"inconclusive: 10.4 µM [inhibitor, single point]"
5,O=C(C1CC(c2ccc(Cl)c(Cl)c2)=NO1)N1CCC2(CC1)OCCO2 (stereo not drawn),inactive
6,CC(C)CCN1CCN(Cc2cccn2-c2cccnc2)CC1CCO (stereo not drawn),"inconclusive: 18.5 µM [inhibitor, single point]"
7,COc1ccc([C@@H]2Sc3cc(OC)ccc3N(CCN(C(C)C)C(C)C)C(=O)[C@H]2OC(C)=O)cc1,"inconclusive: 14.7 µM [inhibitor, partial curve, poor fit]"
8,CCOC(=O)C1=C(COC(=O)c2ccc(OC(C)C)cc2)NC(=O)NC1C (stereo not drawn),"inconclusive: 16.5 µM [inhibitor, single point]"
9,COc1cc(C(CCN2CCCC2)c2c(OC)cc(OC)c3c(-c4ccccc4)cc(=O)oc23)cc(OC)c1OC (stereo not drawn),active: 1.85 µM
10,COC(=O)c1[nH]c2cccc(OC)c2c1NC(=O)CCN1CCN(c2cccc(Cl)c2)CC1,"inconclusive: 2.94 µM [inhibitor, partial curve, poor fit]"
11,O=C(CSc1nc2[nH]ncc2c(=O)[nH]1)Nc1ccc(F)cc1,inactive
12,CCn1cc([N+](=O)[O-])c(C(=O)N2N=C(c3ccccc3)CC2c2ccc([N+](=O)[O-])cc2)n1 (stereo not drawn),"inconclusive: 18.5 µM [inhibitor, single point]"
13,O=C(O)c1cccc([N+](=O)[O-])c1C(=O)Nc1cccc2ccccc12,inactive
14,O=C(NCc1nnc(SCC(=O)N2CCCCCC2)o1)c1ccco1,"inconclusive: 18.5 µM [inhibitor, single point]"
15,Cc1ccc2c(c1)c1ncn(Cc3ccc(F)cc3)c(=O)c1n2C,"inconclusive: 11.7 µM [inhibitor, partial curve]"
16,CC(=O)NC(CC(=O)Nc1ccc(S(=O)(=O)N2CCCC2)cc1)c1ccccc1 (stereo not drawn),"inconclusive: 18.5 µM [inhibitor, single point]"
17,CCOc1ccc(OCC)c(NC(=O)CCn2c(=O)oc3ccccc32)c1,"inconclusive: 18.5 µM [inhibitor, partial curve, poor fit]"
18,CCOc1ccc(-c2cc(CCCC(=O)NCCc3ccc(OC)c(OC)c3OC)no2)cc1,inactive
19,Cc1ccc(-c2nc(NCc3cccnc3)c3ccccc3n2)cc1,inactive
20,COc1ccc(-n2nc(C(=O)NCC(=O)NCCCN3CCOCC3)c3ccccc3c2=O)cc1OC,inactive
21,CC(=O)c1ccc(N2CCN(C(=O)Nc3ccc(F)cc3F)CC2)cc1,"inconclusive: 2.08 µM [inhibitor, partial curve, poor fit]"
22,Cc1ccc(C(=O)N2CCOCC2)cc1S(=O)(=O)N1CCOCC1,"inconclusive: 18.5 µM [inhibitor, single point]"
23,CC(C)(C)NC(=O)CN(C(=O)CNS(=O)(=O)c1ccc(Cl)cc1)c1ccc2c(c1)OCCO2,inactive

# Single entries from above.
# CCN(C(=O)COC(=O)/C(=C/c1ccccc1)n1nnnc1C)C1CCCCC1 – Potency: inconclusive: 18.5 µM [inhibitor, single point]
# COc1cc(Br)c(CCNC(=O)Cc2ccccc2)cc1OC – Potency: inconclusive: 10.4 µM [inhibitor, single point]

# (cont.)

row,SMILES,Potency
1,Cc1cc(C)c(S(=O)(=O)N2CCN(C(=O)N3CCOCC3)CC2)c(C)c1,"inconclusive: 18.5 µM [inhibitor, single point]"
2,C=CCn1c(O)c(C(CC)=Nc2cccc(C(F)(F)F)c2)c(=O)[nH]c1=O,"inconclusive: 0.0586 µM [inhibitor, full curve, poor fit]"
3,CCCc1ccc2oc(C(=O)N3CCCC3)c(C)c2c1,"inconclusive: 14.7 µM [inhibitor, single point]"
4,Cc1cccc(Nc2c([N+](=O)[O-])c(=O)oc3ccccc23)c1,"inconclusive: 14.7 µM [inhibitor, single point]"
5,O=C(Nc1ccc(N2CCCCC2)cc1)c1ccc([N+](=O)[O-])o1,"inconclusive: 1.65 µM [inhibitor, full curve]"
6,CSc1ccc(/C=N/n2nnnc2N)cc1,inactive
7,CN(CC(=O)Nc1cccc(F)c1)C(=O)COc1cccc2c1OC(C)(C)C2,"inconclusive: 5.22 µM [inhibitor, partial curve]"
8,CCn1ccnc1CN1CCCC(C(=O)c2cc(C)c(OC)c(C)c2)C1 (stereo not drawn),"inconclusive: 18.5 µM [inhibitor, partial curve, poor fit]"
9,COC(=O)CSc1nc(N)c(C#N)c(C(C)C)c1C#N,"inconclusive: 0.0828 µM [inhibitor, full curve, poor fit]"
10,CCO[C@@H]1OC(C(=O)N2CCN(C)CC2)=C[C@H](c2csc3ccccc23)[C@H]1CCCO,"inconclusive: 10.4 µM [inhibitor, single point]"
11,Cc1ccc(NC(=O)/C=C\C(=O)O)c([N+](=O)[O-])c1,inactive
12,C/C(=N/NC(=O)CNC(=O)Cc1ccc(Cl)cc1)c1ccco1,inactive
13,COCC(C)n1c(COc2ccccc2F)nnc1SCc1c(C)noc1C (stereo not drawn),"inconclusive: 13.1 µM [inhibitor, partial curve, poor fit]"
14,COc1cc(NC(=O)CN(c2ccc(C)cc2)S(=O)(=O)c2c(C)noc2C)cc(OC)c1,"inconclusive: 9.28 µM [inhibitor, partial curve, poor fit]"
15,CCN(CC)c1ccc(NC(=O)COC(=O)C2CCN(c3ccc(C(F)(F)F)cn3)CC2)cc1,inactive
16,Cc1c(Cl)cccc1NC(=O)CCC(=O)c1cccs1,inactive
17,O=C(CCc1ccccc1)Nc1ccccc1[N+](=O)[O-],"inconclusive: 10.4 µM [inhibitor, single point]"
18,CCn1nc(C)c(CN2CCC(n3nccc3NC(=O)c3ccccc3OC)CC2)c1C,"inconclusive: 9.28 µM [inhibitor, partial curve, poor fit]"
19,CCn1c(CCCNC(=O)c2cccs2)nc2ccccc21,inactive
20,N=c1oc2cc(O)ccc2cc1C(=O)Nc1ccc(Br)cc1,active: 0.738 µM
21,N#Cc1nc(-c2ccc(F)cc2)oc1NCc1ccco1,inactive
22,CC(C)(C)c1nn(-c2ccccc2)c2[nH]c(=O)c(CNc3ccc4c(c3)OCCO4)cc12,"inconclusive: 1.85 µM [inhibitor, single point]"
